These results are taken from publication PMC7275063.

Amino acid sequences for entries named in this document (tags omitted).
UniProt Q6PHN9: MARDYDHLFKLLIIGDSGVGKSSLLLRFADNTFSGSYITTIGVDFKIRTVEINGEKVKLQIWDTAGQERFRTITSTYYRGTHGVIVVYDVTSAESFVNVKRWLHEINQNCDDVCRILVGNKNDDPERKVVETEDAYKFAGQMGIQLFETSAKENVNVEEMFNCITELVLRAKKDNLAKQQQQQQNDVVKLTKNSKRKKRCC
UniProt Q86WG5: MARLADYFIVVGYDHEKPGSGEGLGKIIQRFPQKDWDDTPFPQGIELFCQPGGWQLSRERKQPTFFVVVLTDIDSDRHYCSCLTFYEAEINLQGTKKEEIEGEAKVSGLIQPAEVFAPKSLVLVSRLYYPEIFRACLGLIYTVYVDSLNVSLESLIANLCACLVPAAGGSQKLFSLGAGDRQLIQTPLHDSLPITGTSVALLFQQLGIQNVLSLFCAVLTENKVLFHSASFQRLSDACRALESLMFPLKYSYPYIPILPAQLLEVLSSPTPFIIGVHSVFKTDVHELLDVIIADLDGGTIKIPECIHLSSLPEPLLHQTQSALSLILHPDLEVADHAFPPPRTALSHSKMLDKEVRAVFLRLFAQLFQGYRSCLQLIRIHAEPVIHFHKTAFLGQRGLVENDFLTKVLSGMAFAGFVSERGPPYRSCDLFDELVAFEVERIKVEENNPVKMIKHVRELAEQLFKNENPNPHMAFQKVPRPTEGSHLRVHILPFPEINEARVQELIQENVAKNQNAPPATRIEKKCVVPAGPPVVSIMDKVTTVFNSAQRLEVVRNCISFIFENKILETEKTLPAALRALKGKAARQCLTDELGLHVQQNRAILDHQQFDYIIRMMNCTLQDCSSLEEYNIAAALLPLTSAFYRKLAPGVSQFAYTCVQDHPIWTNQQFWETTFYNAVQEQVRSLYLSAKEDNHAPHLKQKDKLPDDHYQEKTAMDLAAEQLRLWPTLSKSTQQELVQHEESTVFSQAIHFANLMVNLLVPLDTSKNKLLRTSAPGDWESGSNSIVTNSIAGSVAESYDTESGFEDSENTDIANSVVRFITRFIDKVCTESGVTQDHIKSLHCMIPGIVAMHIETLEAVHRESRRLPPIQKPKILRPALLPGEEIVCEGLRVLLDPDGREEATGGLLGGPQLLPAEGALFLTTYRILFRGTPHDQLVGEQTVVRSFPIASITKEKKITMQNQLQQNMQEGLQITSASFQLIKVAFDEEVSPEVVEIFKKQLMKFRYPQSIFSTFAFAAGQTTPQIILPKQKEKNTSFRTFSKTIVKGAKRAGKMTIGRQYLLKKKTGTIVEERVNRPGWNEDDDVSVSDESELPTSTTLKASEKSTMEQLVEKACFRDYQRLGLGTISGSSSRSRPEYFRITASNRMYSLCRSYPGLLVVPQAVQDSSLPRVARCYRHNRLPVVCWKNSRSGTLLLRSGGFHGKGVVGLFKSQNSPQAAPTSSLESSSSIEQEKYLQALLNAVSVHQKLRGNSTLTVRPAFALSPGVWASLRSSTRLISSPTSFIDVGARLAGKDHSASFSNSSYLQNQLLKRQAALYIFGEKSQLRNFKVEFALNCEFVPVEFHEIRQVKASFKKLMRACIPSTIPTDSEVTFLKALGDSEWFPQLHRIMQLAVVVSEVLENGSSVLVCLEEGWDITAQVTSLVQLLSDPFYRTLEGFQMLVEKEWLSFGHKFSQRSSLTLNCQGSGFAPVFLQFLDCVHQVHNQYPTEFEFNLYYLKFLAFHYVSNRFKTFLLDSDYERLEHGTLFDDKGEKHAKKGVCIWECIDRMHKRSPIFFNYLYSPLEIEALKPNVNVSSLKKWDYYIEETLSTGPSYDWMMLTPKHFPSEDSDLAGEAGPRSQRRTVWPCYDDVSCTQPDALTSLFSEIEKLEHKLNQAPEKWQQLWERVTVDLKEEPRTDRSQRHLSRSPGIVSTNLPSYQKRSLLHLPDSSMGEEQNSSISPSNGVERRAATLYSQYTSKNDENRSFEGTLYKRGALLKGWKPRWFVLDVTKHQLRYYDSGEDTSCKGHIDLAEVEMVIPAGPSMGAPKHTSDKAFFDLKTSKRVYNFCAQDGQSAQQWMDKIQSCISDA
UniProt O95248: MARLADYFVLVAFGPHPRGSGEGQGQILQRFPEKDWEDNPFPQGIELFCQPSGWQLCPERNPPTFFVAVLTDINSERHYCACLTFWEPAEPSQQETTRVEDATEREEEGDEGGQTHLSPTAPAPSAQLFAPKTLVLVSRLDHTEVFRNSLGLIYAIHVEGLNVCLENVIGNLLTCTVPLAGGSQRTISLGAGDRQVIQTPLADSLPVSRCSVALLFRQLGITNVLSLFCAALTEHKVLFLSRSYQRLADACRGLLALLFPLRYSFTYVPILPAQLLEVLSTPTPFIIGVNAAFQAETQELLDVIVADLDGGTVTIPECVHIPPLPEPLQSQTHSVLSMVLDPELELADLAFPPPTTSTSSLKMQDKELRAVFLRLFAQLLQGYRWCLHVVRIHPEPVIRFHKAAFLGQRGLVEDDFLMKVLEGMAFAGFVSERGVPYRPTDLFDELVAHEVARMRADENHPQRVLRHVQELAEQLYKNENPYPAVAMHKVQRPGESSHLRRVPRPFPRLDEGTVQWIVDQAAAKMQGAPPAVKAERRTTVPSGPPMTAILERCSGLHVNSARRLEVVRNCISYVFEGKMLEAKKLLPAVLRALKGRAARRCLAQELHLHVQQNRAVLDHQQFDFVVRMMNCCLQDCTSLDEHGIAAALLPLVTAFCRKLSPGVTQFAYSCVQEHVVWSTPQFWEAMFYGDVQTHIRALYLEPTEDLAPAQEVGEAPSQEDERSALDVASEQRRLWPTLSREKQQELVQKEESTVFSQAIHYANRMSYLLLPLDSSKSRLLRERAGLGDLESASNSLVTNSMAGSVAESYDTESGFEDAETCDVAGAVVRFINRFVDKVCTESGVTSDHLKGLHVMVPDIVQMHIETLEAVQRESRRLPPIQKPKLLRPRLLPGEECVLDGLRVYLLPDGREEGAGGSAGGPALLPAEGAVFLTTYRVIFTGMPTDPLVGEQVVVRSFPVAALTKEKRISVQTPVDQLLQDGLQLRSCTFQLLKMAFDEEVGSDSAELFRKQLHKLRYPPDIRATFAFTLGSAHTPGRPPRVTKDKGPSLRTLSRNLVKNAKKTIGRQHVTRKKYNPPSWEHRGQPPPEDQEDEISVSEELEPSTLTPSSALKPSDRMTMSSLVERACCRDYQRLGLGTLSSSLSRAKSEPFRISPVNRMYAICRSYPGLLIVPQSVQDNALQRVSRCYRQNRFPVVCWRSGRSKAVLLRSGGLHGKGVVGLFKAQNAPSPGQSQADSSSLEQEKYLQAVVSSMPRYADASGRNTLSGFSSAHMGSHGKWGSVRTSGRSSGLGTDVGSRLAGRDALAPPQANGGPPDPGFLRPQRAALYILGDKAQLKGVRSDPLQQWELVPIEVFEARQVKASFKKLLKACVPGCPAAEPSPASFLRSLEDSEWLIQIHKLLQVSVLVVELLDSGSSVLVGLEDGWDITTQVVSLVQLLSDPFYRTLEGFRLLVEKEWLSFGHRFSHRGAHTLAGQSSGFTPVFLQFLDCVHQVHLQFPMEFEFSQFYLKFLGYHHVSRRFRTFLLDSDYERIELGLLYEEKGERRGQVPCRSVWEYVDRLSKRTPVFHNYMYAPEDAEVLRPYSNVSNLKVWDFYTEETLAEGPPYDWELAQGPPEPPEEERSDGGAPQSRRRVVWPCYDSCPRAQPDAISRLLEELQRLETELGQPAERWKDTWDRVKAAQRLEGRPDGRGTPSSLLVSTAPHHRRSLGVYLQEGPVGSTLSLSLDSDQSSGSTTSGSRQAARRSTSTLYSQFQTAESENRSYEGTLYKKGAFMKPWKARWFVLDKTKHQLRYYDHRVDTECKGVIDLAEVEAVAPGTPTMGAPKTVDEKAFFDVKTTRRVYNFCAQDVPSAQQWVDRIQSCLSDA

No constants are given. Whether binding was seen depends on the method and setting. Binding seen in cells or lysates may run through a third protein. These calls come from enrichment with a bait or labelling near it, and not all partners need be listed.

For the test, the target named is myc-tagged BirA* biotin ligase fused N-terminally to Rab35 (mouse) (UniProt Q6PHN9). As to the kind of experiment: proximity labelling; BioID: myc-BirA*-Rab35 or BirA* alone in HEK293T cells fed 50 µM biotin for 24 h; biotinylated proteins purified on streptavidin agarose and identified by label-free quantitative mass spectrometry.

On to “MTMR13 (myotubularin-related protein 13, SET binding factor 2), endogenous (from UniProt Q86WG5 1-1849)”, for which the binding result is “binds”.
Regarding “MTMR5 (SBF1), endogenous (from UniProt O95248 1-1868)”, the binding entry is on record as “binds”.
